Drawing on paper PMC5679597, this text covers binding for seven molecules.

Results are given in words; binding and its absence hold for the method and conditions named. Binding seen in cells or lysates may run through a third protein. A yes stands for co-enrichment or nearness to the bait. Other partners may have been found. Sequences can lack the tags named with a protein.

The target of this assay is T1, GFP-tagged LNX1p80 (Ligand of Numb protein X1, p80 isoform) (mouse) (UniProt O70263).
T1 sequence: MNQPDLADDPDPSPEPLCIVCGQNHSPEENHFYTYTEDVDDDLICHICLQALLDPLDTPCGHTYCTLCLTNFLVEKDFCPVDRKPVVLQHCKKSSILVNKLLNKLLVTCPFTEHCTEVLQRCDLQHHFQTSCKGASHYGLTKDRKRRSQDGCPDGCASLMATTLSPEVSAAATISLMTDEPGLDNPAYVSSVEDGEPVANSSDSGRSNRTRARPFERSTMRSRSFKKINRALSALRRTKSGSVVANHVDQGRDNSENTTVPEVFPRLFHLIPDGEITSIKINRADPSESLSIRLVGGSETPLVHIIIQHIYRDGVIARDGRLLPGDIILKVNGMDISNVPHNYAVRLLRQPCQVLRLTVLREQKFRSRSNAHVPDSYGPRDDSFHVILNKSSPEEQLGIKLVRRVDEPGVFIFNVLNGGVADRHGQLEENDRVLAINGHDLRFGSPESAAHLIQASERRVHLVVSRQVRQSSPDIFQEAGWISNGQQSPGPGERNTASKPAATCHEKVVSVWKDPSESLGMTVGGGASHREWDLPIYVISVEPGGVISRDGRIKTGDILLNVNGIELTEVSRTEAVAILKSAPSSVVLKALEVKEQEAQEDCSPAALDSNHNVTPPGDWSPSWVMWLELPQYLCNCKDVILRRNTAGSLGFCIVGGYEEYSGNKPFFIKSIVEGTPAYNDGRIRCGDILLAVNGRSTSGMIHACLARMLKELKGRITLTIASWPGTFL
Put plainly: affinity purification with mass spectrometry; GFP-LNX1p80 complexes purified on magnetic GFP-Trap beads from stably transfected HEK 293 cells; gel slices, nano-LC MS/MS; proteins also found with GFP alone removed; Mascot protein score cut-off 70.

B1: ERC protein 2, endogenous (protein, UniProt O15083 1-957)
chain: MYGSARTITNLEGSPSRSPRLPRSPRLGHRRTSSGGGGGTGKTLSMENIQSLNAAYATSGPMYLSDHEGVASTTYPKGTMTLGRATNRAVYGGRVTAMGSSPNIASAGLSHTDVLSYTDQHGGLTGSSHHHHHQVPSMLRQVRDSTMLDLQAQLKELQRENDLLRKELDIKDSKLGSSMNSIKTFWSPELKKERVLRKEEAARMSVLKEQMRVSHEENQHLQLTIQALQDELRTQRDLNHLLQQESGNRGAEHFTIELTEENFRRLQAEHDRQAKELFLLRKTLEEMELRIETQKQTLNARDESIKKLLEMLQSKGLPSKSLEDDNERTRRMAEAESQVSHLEVILDQKEKENIHLREELHRRSQLQPEPAKTKALQTVIEMKDTKIASLERNIRDLEDEIQMLKANGVLNTEDREEEIKQIEVYKSHSKFMKTKIDQLKQELSKKESELLALQTKLETLSNQNSDCKQHIEVLKESLTAKEQRAAILQTEVDALRLRLEEKESFLNKKTKQLQDLTEEKGTLAGEIRDMKDMLEVKERKINVLQKKIENLQEQLRDKDKQLTNLKDRVKSLQTDSSNTDTALATLEEALSEKERIIERLKEQRERDDRERLEEIESFRKENKDLKEKVNALQAELTEKESSLIDLKEHASSLASAGLKRDSKLKSLEIAIEQKKEECSKLEAQLKKAHNIEDDSRMNPEFADQIKQLDKEASYYRDECGKAQAEVDRLLEILKEVENEKNDKDKKIAELESLTLRHMKDQNKKVANLKHNQQLEKKKNAQLLEEVRRREDSMADNSQHLQIEELMNALEKTRQELDATKARLASTQQSLAEKEAHLANLRIERRKQLEEILEMKQEALLAAISEKDANIALLELSASKKKKTQEEVMALKREKDRLVHQLKQQTQNRMKLMADNYDDDHHHYHHHHHHHHHRSPGRSQHSNHRPSPDQDDEEGIWA
Regarding B1, the binding result is recorded as “binds”.

B2: PEX6, endogenous (protein, UniProt Q13608 1-980)
chain: MALAVLRVLEPFPTETPPLAVLLPPGGPWPAAELGLVLALRPAGESPAGPALLVAALEGPDAGTEEQGPGPPQLLVSRALLRLLALGSGAWVRARAVRRPPALGWALLGTSLGPGLGPRVGPLLVRRGETLPVPGPRVLETRPALQGLLGPGTRLAVTELRGRARLCPESGDSSRPPPPPVVSSFAVSGTVRRLQGVLGGTGDSLGVSRSCLRGLGLFQGEWVWVAQARESSNTSQPHLARVQVLEPRWDLSDRLGPGSGPLGEPLADGLALVPATLAFNLGCDPLEMGELRIQRYLEGSIAPEDKGSCSLLPGPPFARELHIEIVSSPHYSTNGNYDGVLYRHFQIPRVVQEGDVLCVPTIGQVEILEGSPEKLPRWREMFFKVKKTVGEAPDGPASAYLADTTHTSLYMVGSTLSPVPWLPSEESTLWSSLSPPGLEALVSELCAVLKPRLQPGGALLTGTSSVLLRGPPGCGKTTVVAAACSHLGLHLLKVPCSSLCAESSGAVETKLQAIFSRARRCRPAVLLLTAVDLLGRDRDGLGEDARVMAVLRHLLLNEDPLNSCPPLMVVATTSRAQDLPADVQTAFPHELEVPALSEGQRLSILRALTAHLPLGQEVNLAQLARRCAGFVVGDLYALLTHSSRAACTRIKNSGLAGGLTEEDEGELCAAGFPLLAEDFGQALEQLQTAHSQAVGAPKIPSVSWHDVGGLQEVKKEILETIQLPLEHPELLSLGLRRSGLLLHGPPGTGKTLLAKAVATECSLTFLSVKGPELINMYVGQSEENVREVFARARAAAPCIIFFDELDSLAPSRGRSGDSGGVMDRVVSQLLAELDGLHSTQDVFVIGATNRPDLLDPALLRPGRFDKLVFVGANEDRASQLRVLSAITRKFKLEPSVSLVNVLDCCPPQLTGADLYSLCSDAMTAALKRRVHDLEEGLEPGSSALMLTMEDLLQAAARLQPSVSEQELLRYKRIQRKFAAC
On to B2, for which the binding result is given as “binds”.

B3: FLOT1, endogenous (protein, UniProt O75955 1-427)
chain: MFFTCGPNEAMVVSGFCRSPPVMVAGGRVFVLPCIQQIQRISLNTLTLNVKSEKVYTRHGVPISVTGIAQVKIQGQNKEMLAAACQMFLGKTEAEIAHIALETLEGHQRAIMAHMTVEEIYKDRQKFSEQVFKVASSDLVNMGISVVSYTLKDIHDDQDYLHSLGKARTAQVQKDARIGEAEAKRDAGIREAKAKQEKVSAQYLSEIEMAKAQRDYELKKAAYDIEVNTRRAQADLAYQLQVAKTKQQIEEQRVQVQVVERAQQVAVQEQEIARREKELEARVRKPAEAERYKLERLAEAEKSQLIMQAEAEAASVRMRGEAEAFAIGARARAEAEQMAKKAEAFQLYQEAAQLDMLLEKLPQVAEEISGPLTSANKITLVSSGSGTMGAAKVTGEVLDILTRLPESVERLTGVSISQVNHKPLRTA
For B3, the binding entry was “binds”.

B4: FLOT2, endogenous (protein, UniProt Q14254 1-428)
chain: MGNCHTVGPNEALVVSGGCCGSDYKQYVFGGWAWAWWCISDTQRISLEIMTLQPRCEDVETAEGVALTVTGVAQVKIMTEKELLAVACEQFLGKNVQDIKNVVLQTLEGHLRSILGTLTVEQIYQDRDQFAKLVREVAAPDVGRMGIEILSFTIKDVYDKVDYLSSLGKTQTAVVQRDADIGVAEAERDAGIREAECKKEMLDVKFMADTKIADSKRAFELQKSAFSEEVNIKTAEAQLAYELQGAREQQKIRQEEIEIEVVQRKKQIAVEAQEILRTDKELIATVRRPAEAEAHRIQQIAEGEKVKQVLLAQAEAEKIRKIGEAEAAVIEAMGKAEAERMKLKAEAYQKYGDAAKMALVLEALPQIAAKIAAPLTKVDEIVVLSGDNSKVTSEVNRLLAELPASVHALTGVDLSKIPLIKKATGVQV
As to B4, the binding result is recorded as “binds”.

B5: MARS, endogenous (protein, UniProt P56192 1-900)
chain: MRLFVSDGVPGCLPVLAAAGRARGRAEVLISTVGPEDCVVPFLTRPKVPVLQLDSGNYLFSTSAICRYFFLLSGWEQDDLTNQWLEWEATELQPALSAALYYLVVQGKKGEDVLGSVRRALTHIDHSLSRQNCPFLAGETESLADIVLWGALYPLLQDPAYLPEELSALHSWFQTLSTQEPCQRAAETVLKQQGVLALRPYLQKQPQPSPAEGRAVTNEPEEEELATLSEEEIAMAVTAWEKGLESLPPLRPQQNPVLPVAGERNVLITSALPYVNNVPHLGNIIGCVLSADVFARYSRLRQWNTLYLCGTDEYGTATETKALEEGLTPQEICDKYHIIHADIYRWFNISFDIFGRTTTPQQTKITQDIFQQLLKRGFVLQDTVEQLRCEHCARFLADRFVEGVCPFCGYEEARGDQCDKCGKLINAVELKKPQCKVCRSCPVVQSSQHLFLDLPKLEKRLEEWLGRTLPGSDWTPNAQFITRSWLRDGLKPRCITRDLKWGTPVPLEGFEDKVFYVWFDATIGYLSITANYTDQWERWWKNPEQVDLYQFMAKDNVPFHSLVFPCSALGAEDNYTLVSHLIATEYLNYEDGKFSKSRGVGVFGDMAQDTGIPADIWRFYLLYIRPEGQDSAFSWTDLLLKNNSELLNNLGNFINRAGMFVSKFFGGYVPEMVLTPDDQRLLAHVTLELQHYHQLLEKVRIRDALRSILTISRHGNQYIQVNEPWKRIKGSEADRQRAGTVTGLAVNIAALLSVMLQPYMPTVSATIQAQLQLPPPACSILLTNFLCTLPAGHQIGTVSPLFQKLENDQIESLRQRFGGGQAKTSPKPAVVETVTTAKPQQIQALMDEVTKQGNIVRELKAQKADKNEVAAEVAKLLDLKKQLAVAEGKPPEAPKGKKKK
Regarding B5, the binding result was “binds”.

B6: TRAF4, endogenous (protein, UniProt Q9BUZ4 1-470)
chain: MPGFDYKFLEKPKRRLLCPLCGKPMREPVQVSTCGHRFCDTCLQEFLSEGVFKCPEDQLPLDYAKIYPDPELEVQVLGLPIRCIHSEEGCRWSGPLRHLQGHLNTCSFNVIPCPNRCPMKLSRRDLPAHLQHDCPKRRLKCEFCGCDFSGEAYESHEGMCPQESVYCENKCGARMMRRLLAQHATSECPKRTQPCTYCTKEFVFDTIQSHQYQCPRLPVACPNQCGVGTVAREDLPGHLKDSCNTALVLCPFKDSGCKHRCPKLAMARHVEESVKPHLAMMCALVSRQRQELQELRRELEELSVGSDGVLIWKIGSYGRRLQEAKAKPNLECFSPAFYTHKYGYKLQVSAFLNGNGSGEGTHLSLYIRVLPGAFDNLLEWPFARRVTFSLLDQSDPGLAKPQHVTETFHPDPNWKNFQKPGTWRGSLDESSLGFGYPKFISHQDIRKRNYVRDDAVFIRAAVELPRKILS
Take B6: the binding result is recorded as “binds”.

B7: DZIP3, endogenous (protein, UniProt Q86Y13 1-1208)
chain: MDSLPDEFFVRHPAVEDQRKEETENKLEKSSGQLNKQENDIPTDLVPVNLLLEVKKLLNAINTLPKGVVPHIKKFLQEDFSFQTMQREVAANSQNGEEIVPALTLRFLITQLEAALRNIQAGNYTAHQINIGYYLTLLFLYGVALTERGKKEDYTEAENKFLVMKMMIQENEICENFMSLVYFGRGLLRCAQKRYNGGLLEFHKSLQEIGDKNDHWFDIDPTEDEDLPTTFKDLLNNFIKTTESNIMKQTICSYLDCERSCEADILKNTSYKGFFQLMCSKSCCVYFHKICWKKFKNLKYPGENDQSFSGKKCLKEGCTGDMVRMLQCDVPGIVKILFEVVRKDEYITIENLGASYRKLISLKITDTDIRPKISLKFNTKDEMPIFKLDYNYFYHLLHIIIISGTDIVRQIFDEAMPPPLLKKELLIHKNVLESYYNHLWTNHPLGGSWHLLYPPNKELPQSKQFDLCLLLALIKHLNVFPAPKKGWNMEPPSSDISKSADILRLCKYRDILLSEILMNGLTESQFNSIWKKVSDILLRLGMMQEDIDKVKENPIENISLDYHQLSVYLGIPVPEIIQRMLSCYQQGIALQSITGSQRIEIEELQNEEEELSPPLMEYNINVKSHPEIQFAEINKDGTSIPSESSTESLKDLQEVKSKQRKKKKTKNKKNKDSKEDQVPYVVEKEEQLRKEQANPHSVSRLIKDDASDVQEDSAMEDKFYSLDELHILDMIEQGSAGKVTTDYGETEKERLARQRQLYKLHYQCEDFKRQLRTVTFRWQENQMQIKKKDKIIASLNQQVAFGINKVSKLQRQIHAKDNEIKNLKEQLSMKRSQWEMEKHNLESTMKTYVSKLNAETSRALTAEVYFLQCRRDFGLLHLEQTEKECLNQLARVTHMAASNLESLQLKAAVDSWNAIVADVRNKIAFLRTQYNEQINKVKQGFALSTLPPVQLPPPPPSPEILMQQFLGRPLVKESFFRPILTVPQMPAVCPGVVSATGQPRAPLMTGIAWALPAPVGDAVPPSAGLRSDPSIMNWERITDRLKTAFPQQTRKELTDFLRKLKDAYGKSLSELTFDEIVCKISQFIDPKKSQSQGKSVSNVNCVSPSHSPSQPDAAQPPKPAWRPLTSQGPATWEGASNPDEEEEEEEPCVICHENLSPENLSVLPCAHKFHAQCIRPWLMQQGTCPTCRLHVLLPEEFPGHPSRQLPKI
Take B7: the binding entry is listed as “binds”.
